Results deposited as PubChem BioAssay AID504791 (Drosophila RNAi Screening Center, 2011)
Screen: 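Genes whose knock-down strengthens or weakens small-RNA reporter silencing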 (primary screen). Cell system: Drosophila S2-derived reporter cells. Reagents: long dsRNA against Drosophila genes, about 150-250 ng dsRNA per well (siRNA assay); about 80-120 ng (miRNA assay). Timing: about 5 days (siRNA assay); about 4 days (miRNA assay). Treatment: copper sulfate induction of reporters: 25 µM (siRNA assay); 200 mM stated (miRNA assay), 1-2 days before reading. Detection: 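Dual luciferase assay: Renilla to firefly signal ratio in each well, scaled to the mean ratio of its plate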. Units: stable assay Renilla, run 1 in luminescence; stable assay firefly, run 1 in luminescence. Call rule: 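First-pass picks had plate-scaled ratios over 1.5 for the siRNA assay, over 1.6 for the miRNA assay, or under 0.6; two distinct dsRNAs had to score alike on retest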.
In all, the deposit lists about 23,000 reagents; this is a random part of those with a known target gene and a result. Over the whole deposit, 199 (0.86%) are marked active. 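Plate-scaled ratios behind the calls are not deposited; printed light signals are raw; many rows marked increased or decreased are still called inactive.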 A number with no mark means an inactive call. A plus sign joins genes that one reagent is predicted to hit. Reagent sequences are not shown. Not given: the direction of the score.

For CG5958 (GeneID 34022) [DRSC02915], the values are stable assay Renilla, run 1 = 7215; stable assay firefly, run 1 = 3.55e5.
ZIPIC (GeneID 43566) [DRSC16349] showed stable assay Renilla, run 1 = 7370; stable assay firefly, run 1 = 3.45e5.
CG9391 (GeneID 40346) [DRSC11858] gave stable assay Renilla, run 1 = 6096; stable assay firefly, run 1 = 3.57e5.
After knock-down of CG7702 (GeneID 42242) [DRSC16293], the record shows stable assay Renilla, run 1 = 8695; stable assay firefly, run 1 = 5.24e5.
Knock-down of CG9570 (GeneID 33009) [DRSC20687] gave: stable assay Renilla, run 1 = 5384; stable assay firefly, run 1 = 5.30e5.
Depletion of ph-d (GeneID 44889) [DRSC18819] gave: stable assay Renilla, run 1 = 4903; stable assay firefly, run 1 = 2.14e5.
After knock-down of ph-d (GeneID 44889) [DRSC23191] the results were stable assay Renilla, run 1 = 2892; stable assay firefly, run 1 = 2.40e5.
After knock-down of ana3 (GeneID 36341) [DRSC06289] the results were stable assay Renilla, run 1 = 6882; stable assay firefly, run 1 = 3.13e5.
Ucp4B (GeneID 33833) [DRSC02665] gave stable assay Renilla, run 1 = 7330; stable assay firefly, run 1 = 3.76e5.

Reformatted: 3 of the entries above
predicted target	DRSC id	stable siRNA reporter change	stable assay Renilla, run 1	stable assay firefly, run 1
CG7702 (GeneID 42242)	DRSC16293		8695	5.24e5
CG9570 (GeneID 33009)	DRSC20687		5384	5.30e5
ph-d (GeneID 44889)	DRSC18819		4903	2.14e5

Additional results follow.
After knock-down of l(2)10685 (GeneID 33293) [DRSC00665], the screen gave stable assay Renilla, run 1 = 95438; stable assay firefly, run 1 = 2.99e5.
Depletion of CG14995 (GeneID 38487) [DRSC08452] came out at: stable siRNA reporter change reporter ratio raised past the hit cutoff; stable assay Renilla, run 1 = 11529; stable assay firefly, run 1 = 2.26e5.
Silencing of CG14995 (GeneID 38487) [DRSC22991] gave: stable assay Renilla, run 1 = 5748; stable assay firefly, run 1 = 4.06e5.
CG15894 (GeneID 31574) [DRSC18098] gave stable assay Renilla, run 1 = 5323; stable assay firefly, run 1 = 4.12e5.
Depletion of CG15894 (GeneID 31574) [DRSC18099] came out at: stable assay Renilla, run 1 = 5160; stable assay firefly, run 1 = 2.83e5.
For CG17002 (GeneID 35610) [DRSC04978], the entry reads stable assay Renilla, run 1 = 58831; stable assay firefly, run 1 = 1.14e6.
Against Hpd (GeneID 40263) [DRSC11670], the values are stable assay Renilla, run 1 = 8746; stable assay firefly, run 1 = 3.91e5.
MstProx + Mst84Da [DRSC12597] gave stable assay Renilla, run 1 = 6690; stable assay firefly, run 1 = 6.21e5.
After knock-down of CG14756 (GeneID 35798) [DRSC06491], the screen gave stable assay Renilla, run 1 = 6540; stable assay firefly, run 1 = 4.01e5.
For CG34198 (GeneID 5740481) [DRSC05803], the entry reads stable assay Renilla, run 1 = 5480; stable assay firefly, run 1 = 3.46e5.
